The values below come from article PMC5173319, “Crenactin forms actin-like double helical filaments regulated by arcadin-2” (eLife, 2016).

Sequences of proteins named here, by UniProt entry; tags and fusion partners are left off.
UniProt A3MWN5: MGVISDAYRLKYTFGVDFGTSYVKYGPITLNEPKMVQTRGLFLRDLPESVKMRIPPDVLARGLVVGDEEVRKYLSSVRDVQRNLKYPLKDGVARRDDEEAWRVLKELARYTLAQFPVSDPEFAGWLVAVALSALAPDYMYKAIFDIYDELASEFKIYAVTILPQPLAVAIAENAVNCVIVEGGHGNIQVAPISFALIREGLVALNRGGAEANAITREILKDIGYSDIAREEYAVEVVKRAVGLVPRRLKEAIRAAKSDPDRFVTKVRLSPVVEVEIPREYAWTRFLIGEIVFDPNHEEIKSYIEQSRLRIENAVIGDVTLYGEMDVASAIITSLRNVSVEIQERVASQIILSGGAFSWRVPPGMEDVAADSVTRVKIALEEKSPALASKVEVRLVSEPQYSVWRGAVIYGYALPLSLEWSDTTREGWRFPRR

Results are given in words; binding and its absence hold for the method and conditions named.

This experiment concerns the target Pyrobaculum calidifontis crenactin (Pyrobaculum calidifontis) (UniProt A3MWN5). The experiment in a line: condition: only with 2 µM arcadin-2 C-terminal peptide; AUC; velocity sedimentation, 2 µM crenactin with 2 µM arcadin-2 C-terminal peptide, 50,000 rpm, 20°C, PBS; both purified.

“Pyrobaculum calidifontis crenactin (from UniProt A3MWN5 1-432)”: the binding entry was “no binding”.
